Laboratory results taken from patent publication US20130058955A1.
Results are given in words; binding and its absence hold for the method and conditions named.

Sequences of proteins named here, by UniProt entry; tags and fusion partners are left off. A change or cut given only in a name is not applied to a line headed by its entry.
UniProt P0CG48: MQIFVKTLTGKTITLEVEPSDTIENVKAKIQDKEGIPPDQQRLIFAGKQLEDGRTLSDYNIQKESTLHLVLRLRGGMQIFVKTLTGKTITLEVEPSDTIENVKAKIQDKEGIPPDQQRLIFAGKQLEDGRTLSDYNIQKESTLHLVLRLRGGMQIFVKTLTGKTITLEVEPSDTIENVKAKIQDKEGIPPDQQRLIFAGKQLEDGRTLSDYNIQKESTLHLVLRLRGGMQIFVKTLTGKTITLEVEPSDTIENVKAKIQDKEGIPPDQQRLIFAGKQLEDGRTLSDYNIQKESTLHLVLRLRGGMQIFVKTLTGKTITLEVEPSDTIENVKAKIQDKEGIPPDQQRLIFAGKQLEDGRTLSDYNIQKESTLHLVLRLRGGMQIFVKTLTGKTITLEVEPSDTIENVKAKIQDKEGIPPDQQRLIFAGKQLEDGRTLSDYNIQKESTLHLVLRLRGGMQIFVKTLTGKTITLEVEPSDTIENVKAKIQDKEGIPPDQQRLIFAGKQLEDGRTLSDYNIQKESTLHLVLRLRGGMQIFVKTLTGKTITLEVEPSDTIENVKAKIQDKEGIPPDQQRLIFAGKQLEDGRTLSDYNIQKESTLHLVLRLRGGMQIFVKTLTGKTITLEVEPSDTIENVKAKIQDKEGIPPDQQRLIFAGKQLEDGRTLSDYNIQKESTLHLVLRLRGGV

B1: 1F11 IgG (antibody, V domains shown)
VH: EVQLVESGGGLVQPGGSLRLSCAASGFTFSNTYISWVRQAPGKGLEWVASITPSSGSTDYADSVKGRFTISADTSKNTAYLQMNSLRAEDTAVYYCARTWLLRWVMDYWGQGTLVTVSS
VL: DIQMTQSPSSLSASVGDRVTITCRASQDVSTAVAWYQQKPGKAPKLLIYSAKFLYSGVPSRFSGSGSGTDFTLTISSLQPEDFATYYCQQSYTTPPTFGQGTKVEIK
B2: 1F11, Fab displayed on phage (Fab, V domains shown)
VH: B1 VH
VL: B1 VL

What was measured:
[1] = target: K63-linked diubiquitin (Boston Biochem) (human) (UniProt P0CG48); test: condition: 1 µg/mL IgG; 1 µg K63-linked diubiquitin per lane; western blot
[2] = target: K63-linked diubiquitin (Boston Biochem) (human) (UniProt P0CG48); test: western blot, 1 ug/mL IgG, LI-COR Odyssey
[3] = target: K63-linked diubiquitin (Boston Biochem) (human) (UniProt P0CG48); test: phage specificity ELISA, 1 ug/mL coated antigen, anti-M13-HRP
[4] = target: K11-linked diubiquitin (Genentech) (human) (UniProt P0CG48); test: as above
[5] = target: K48-linked diubiquitin (Boston Biochem) (human) (UniProt P0CG48); test: as above
[6] = target: monoubiquitin (Boston Biochem) (human) (UniProt P0CG48); test: as above
[7] = target: K63-linked diubiquitin (Boston Biochem) (human) (UniProt P0CG48); test: phage spot ELISA, antigen coated at 1 µg/mL
[8] = target: K63-linked diubiquitin (Boston Biochem) (human) (UniProt P0CG48); test: phage specificity ELISA, antigen coated at 1 µg/mL

Row | Binder | binding [1] | binding [2] | binding [3] | binding [4] | binding [5] | binding [6] | binding [7] | binding [8]
1 | B1 | no binding | no binding (tested: 1000 ng per lane) |  |  |  |  |  | 
2 | B2 |  |  | no binding (tested: phage OD268 1) | no binding (tested: phage OD268 1) | no binding (tested: phage OD268 1) | no binding (tested: phage OD268 1) | no binding (tested: OD450 of less than 0.1) | no binding (tested: OD450<0.16 at a phage OD268=1.0)
